# Source: paper PMC4488328
# Target: T1, Salvador (Sav), Myc-tagged (Drosophila) (UniProt Q9VCR6)
# T1 sequence: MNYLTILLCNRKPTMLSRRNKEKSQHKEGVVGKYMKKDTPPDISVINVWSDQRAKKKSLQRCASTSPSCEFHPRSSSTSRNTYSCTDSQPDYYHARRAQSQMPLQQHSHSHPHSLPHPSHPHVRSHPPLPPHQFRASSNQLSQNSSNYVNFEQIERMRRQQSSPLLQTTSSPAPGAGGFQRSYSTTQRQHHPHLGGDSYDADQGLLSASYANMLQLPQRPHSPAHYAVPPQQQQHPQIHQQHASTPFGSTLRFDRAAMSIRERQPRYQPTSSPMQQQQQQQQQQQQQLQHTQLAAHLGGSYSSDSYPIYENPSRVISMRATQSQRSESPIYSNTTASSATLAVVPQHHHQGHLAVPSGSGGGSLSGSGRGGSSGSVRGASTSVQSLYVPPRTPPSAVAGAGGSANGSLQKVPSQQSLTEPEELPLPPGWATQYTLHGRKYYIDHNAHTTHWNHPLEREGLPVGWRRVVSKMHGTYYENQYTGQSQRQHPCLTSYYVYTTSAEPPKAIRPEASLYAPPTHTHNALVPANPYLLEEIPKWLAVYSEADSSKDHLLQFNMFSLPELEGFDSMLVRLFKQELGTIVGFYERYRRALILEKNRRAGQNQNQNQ
# Experiment: co-IP; mapping with fragments of Herc4 or Sav in S2 cells (Fig 7A, 7B); which partner was precipitated is not told
row,Substance,binding
1,Herc4 ∆HECT (Herc4 lacking the entire HECT domain) (Drosophila melanogaster) (domain or fragment),binds
2,Herc4 ∆RCC1-3 (Herc4 lacking RCC1-like repeats 1–3) (Drosophila melanogaster) (domain or fragment),binds
3,Herc4 ∆RCC1-7 (Herc4 lacking the whole RLD domain) (Drosophila melanogaster) (domain or fragment),no binding

# Target: T1, Salvador (Sav), Myc-tagged (Drosophila)
# Experiment: co-IP; within the Sav ubiquitylation assay: S2 cells transfected with Myc-Sav (or Sav∆N, Sav∆C), HA-ubiquitin and Herc4 and/or Hpo constructs; proteasome inhibitors 4 h unless stated otherwise (5 mM NEM in Fig 8A); anti-Myc immunoprecipitation with Protein A Sepharose; western blot
row,Substance,binding
1,Hpo∆C2 (longer C-terminal truncation of Hpo lacking the SARAH domain) (Drosophila) (domain or fragment),binds
2,Hpo∆C3 (shorter C-terminal truncation of Hpo lacking the SARAH domain) (Drosophila) (domain or fragment),binds
3,Hpo∆N (Hpo with the kinase domain deleted) (Drosophila) (domain or fragment),binds

# Results are given in words; binding and its absence hold for the method and conditions named. Binding seen in cells or lysates may run through a third protein. Binding can be weak; no strength is given. Where a sequence is shown, tags or fusion partners need not be part of it.
